Measured values taken from the supplement of paper PMC10849652.
The other results are listed elsewhere or left out.

Protein sequences, listed by entry. Tags and fused reporters are not part of them. Lines headed by an entry give the natural chain unless they say otherwise; changes in a name come on top.
UniProt Q86WX3: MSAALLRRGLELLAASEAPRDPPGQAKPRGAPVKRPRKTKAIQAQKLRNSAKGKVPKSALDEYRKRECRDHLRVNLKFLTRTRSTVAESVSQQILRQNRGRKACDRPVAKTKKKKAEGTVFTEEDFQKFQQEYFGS
UniProt Q9NQG5: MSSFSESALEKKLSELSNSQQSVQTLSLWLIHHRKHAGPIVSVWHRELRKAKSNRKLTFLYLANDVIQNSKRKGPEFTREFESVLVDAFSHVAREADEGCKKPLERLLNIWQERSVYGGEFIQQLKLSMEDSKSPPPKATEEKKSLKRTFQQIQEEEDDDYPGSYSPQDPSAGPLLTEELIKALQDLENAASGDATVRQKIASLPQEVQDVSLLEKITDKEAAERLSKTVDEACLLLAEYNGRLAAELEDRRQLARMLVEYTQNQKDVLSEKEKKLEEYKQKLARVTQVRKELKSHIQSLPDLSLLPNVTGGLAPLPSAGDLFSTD
UniProt Q9P2E9: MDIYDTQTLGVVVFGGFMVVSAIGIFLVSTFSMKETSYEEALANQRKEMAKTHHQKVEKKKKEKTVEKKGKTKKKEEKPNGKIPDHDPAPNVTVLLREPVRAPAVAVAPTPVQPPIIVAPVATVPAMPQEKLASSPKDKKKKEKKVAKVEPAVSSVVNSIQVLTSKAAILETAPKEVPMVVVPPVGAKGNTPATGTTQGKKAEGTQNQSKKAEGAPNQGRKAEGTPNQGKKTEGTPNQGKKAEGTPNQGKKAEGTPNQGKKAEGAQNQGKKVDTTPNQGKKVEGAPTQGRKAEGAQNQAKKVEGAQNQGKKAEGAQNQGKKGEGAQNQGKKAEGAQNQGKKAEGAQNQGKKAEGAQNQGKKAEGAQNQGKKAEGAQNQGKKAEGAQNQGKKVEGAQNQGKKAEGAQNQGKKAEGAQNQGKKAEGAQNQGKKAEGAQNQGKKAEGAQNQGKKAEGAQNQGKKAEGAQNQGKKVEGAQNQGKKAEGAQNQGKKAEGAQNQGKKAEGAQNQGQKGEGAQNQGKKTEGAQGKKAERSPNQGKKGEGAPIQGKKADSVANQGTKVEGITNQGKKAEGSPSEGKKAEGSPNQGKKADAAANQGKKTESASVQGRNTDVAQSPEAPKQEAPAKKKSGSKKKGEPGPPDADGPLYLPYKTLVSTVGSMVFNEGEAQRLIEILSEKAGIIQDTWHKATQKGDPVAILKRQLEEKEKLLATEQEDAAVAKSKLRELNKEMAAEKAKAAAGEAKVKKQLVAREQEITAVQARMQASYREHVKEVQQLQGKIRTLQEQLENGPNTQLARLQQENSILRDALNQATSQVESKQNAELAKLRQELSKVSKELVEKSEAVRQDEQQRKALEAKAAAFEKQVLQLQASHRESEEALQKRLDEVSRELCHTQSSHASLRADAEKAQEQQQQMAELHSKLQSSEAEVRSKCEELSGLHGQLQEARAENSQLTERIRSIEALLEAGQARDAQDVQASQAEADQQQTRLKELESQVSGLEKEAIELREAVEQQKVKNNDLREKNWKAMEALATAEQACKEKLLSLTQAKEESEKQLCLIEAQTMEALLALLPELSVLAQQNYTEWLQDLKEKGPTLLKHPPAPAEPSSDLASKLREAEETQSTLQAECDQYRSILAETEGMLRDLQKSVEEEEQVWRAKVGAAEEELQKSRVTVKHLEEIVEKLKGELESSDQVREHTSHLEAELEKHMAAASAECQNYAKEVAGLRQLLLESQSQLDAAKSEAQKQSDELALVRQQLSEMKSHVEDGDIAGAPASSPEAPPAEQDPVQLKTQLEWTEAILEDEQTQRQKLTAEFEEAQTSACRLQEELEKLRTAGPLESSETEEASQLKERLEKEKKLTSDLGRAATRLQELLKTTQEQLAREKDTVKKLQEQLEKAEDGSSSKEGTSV
UniProt O75818: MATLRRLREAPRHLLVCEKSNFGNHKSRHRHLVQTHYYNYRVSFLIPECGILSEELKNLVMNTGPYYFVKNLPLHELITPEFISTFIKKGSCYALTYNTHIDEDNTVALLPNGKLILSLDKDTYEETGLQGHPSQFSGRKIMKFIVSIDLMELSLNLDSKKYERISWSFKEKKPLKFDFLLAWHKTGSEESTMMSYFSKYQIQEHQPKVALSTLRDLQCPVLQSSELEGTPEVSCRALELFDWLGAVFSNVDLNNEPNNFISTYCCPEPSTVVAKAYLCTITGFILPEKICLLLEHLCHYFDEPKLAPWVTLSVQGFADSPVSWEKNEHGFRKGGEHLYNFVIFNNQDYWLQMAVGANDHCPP

Tests used:
Assay in all cases: log2 fold change, soluble protein after heating vs DMSO (PISA); higher = thermal stabilisation; K562 cells, 10 uM, 30 min; active = over 0.2 and 3.5 SD of the protein, either way, in both replicates (recomputed)
[1] = compound: C1=CC=C(C=C1)[C@H](COC2=CC3=C(C=C2)NC(=O)N3)NC(=O)C4=CC=CN(C4=O)CC5=CC(=C(C=C5)F)F
Summary of the method: (§1)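 Values are thermal stability changes relative to control samples and are taken from duplicates. They are stated as log2 fold changes. Before quantification by TMTpro 16plex LC-MS/MS with equalised channel sums, K562 cells at 2×10^6 cells/mL were treated with 10 μM compound for 30 min, heated in aliquots for 3 min across 48°C-58°C, pooled, extracted in PBS with 0.5% NP-40 at 4°C, and centrifuged at 21,000xg for 90 min to give the soluble supernatant.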

[2] = compound: CC1=C(SC2=C1C(=N[C@H](C3=NN=C(N32)C)CC(=O)N)C4=CC=C(C=C4)Cl)C
Summary of the method: as §1

[3] = compound: CC1=C2C(=CC=C1)N=C(N(C2=O)C3=CC=CC=C3C)CN4C=NC5=C(N=CN=C54)N
Summary of the method: as §1

[4] = compound: Cc1sc2c(c1C)C(c1ccc(Cl)cc1)=N[C@@H](CC(=O)OC(C)(C)C)c1nnc(C)n1-2
Summary of the method: as §1

[5] = compound: c1ccc([C@@H]2C[C@H]2NC2CCNCC2)cc1
Summary of the method: as §1

Measured: log2 fold change

RPS19BP1 (UniProt Q86WX3)
inactive: [1] 0.007 | [2] -0.258 | [3] -0.118 | [4] 0.111 | [5] 0.004

RPRD1B (UniProt Q9NQG5)
inactive: [1] -0.006 | [2] 0.06 | [3] 0.043 | [4] 0.009 | [5] 0.014

RPL26 (UniProt P61254)
inactive: [1] 0.232 | [2] -0.424 | [3] -0.863 | [4] 0.155 | [5] -0.023

RRBP1 (UniProt Q9P2E9)
inactive: [1] 0.054 | [2] -0.342 | [3] -0.259 | [4] 0.35 | [5] 0

RPL10 (UniProt F8W7C6)
inactive: [1] 0.011 | [2] -0.208 | [3] -0.265 | [4] 0.167 | [5] 0.176

RPS3A (UniProt P61247)
inactive: [1] 0.053 | [2] -0.162 | [3] -0.139 | [4] 0.099 | [5] 0

RPS27 (UniProt P42677)
inactive: [1] 0.042 | [2] 0.029 | [3] -0.027 | [4] 0.091 | [5] -0.172

Two consecutive entries out of the list so far:
RPL26 (UniProt P61254)
inactive: [1] 0.232 | [2] -0.424 | [3] -0.863 | [4] 0.155 | [5] -0.023

RRBP1 (UniProt Q9P2E9)
inactive: [1] 0.054 | [2] -0.342 | [3] -0.259 | [4] 0.35 | [5] 0

Later entries.

RPS9 (UniProt P46781)
inactive: [1] 0.073 | [2] -0.19 | [3] -0.24 | [4] 0.134 | [5] 0

RPP40 (UniProt O75818)
inactive: [1] 0.027 | [2] -0.023 | [3] -0.084 | [4] 0.011 | [5] 0.002
